Measured values as given in patent US6472141B2, “Kinase assays using polycations” (Caliper Technologies Corp., priority 1999, dated 2002).

Test system: poly-D-Lysine
Test: Fluorescence polarization of CDK2 substrate and phosphorylated product on addition of poly-D-lysine
Format: binding
[1] = in the absence of polylysine, 50 mM TAPS pH 9.0
[2] = upon addition of polylysine, 50 mM TAPS pH 9.0

| Substance | fluorescence polarization [1] | fluorescence polarization [2] | fluorescence polarization (upon addition of a large excess of polylysine) [mP] |
| --- | --- | --- | --- |
| Flourescein-QSPKKG-CONH2 [substrate, ID NO; 12] | about 38 mP | about 42 mP |  |
| product: phosphorylated product of Flourescein-QSPKKG-CONH2 after incubation with ATP and CDK2 | about 38 mP | 72 mP | ~100 |
